# Data taken from the supplement of paper PMC11438910.
# The other results are listed elsewhere or left out. Most of these values are background signal.
# B1: 4-127.4 (protein)
# chain 1: QVQLQESGPGLVKPSETLSLTCGVSGYSISSGHGWSWIRQPPGKGLEWIGYVGGSSGNTNYNPSLKSRVTISKDTSKNQISLKLSSVTAADTAVYYCARRGISGTFGLVDYWGQGVLVTVSS
# chain 2: QSVLTQPPSVSGAPGQRVTISCTGSSSNIGGYYVQWYQQLPGSAPKLLIYDNDQRPSGVSDRISGSRSGTSASLTITGLQSEDEADYYCQSFDSFLRGVLFGGGTRLTVL
# What was measured:
# Assay in all cases: fluorescence intensity of antibody binding to polysaccharide-coupled beads; higher = stronger binding
# [1] = biological target: pneumococcal polysaccharide Pn28A
# [2] = biological target: pneumococcal polysaccharide Pn28F
# [3] = biological target: pneumococcal polysaccharide Pn29
# [4] = biological target: pneumococcal polysaccharide Pn3
# [5] = biological target: pneumococcal polysaccharide Pn31
# [6] = biological target: pneumococcal polysaccharide Pn32A
# [7] = biological target: pneumococcal polysaccharide Pn32F
# [8] = biological target: pneumococcal polysaccharide Pn33A
# [9] = biological target: pneumococcal polysaccharide Pn33B
# [10] = biological target: pneumococcal polysaccharide Pn33C
# [11] = biological target: pneumococcal polysaccharide Pn33D
# [12] = biological target: pneumococcal polysaccharide Pn33F
# [13] = antibody concentration 2337.65 ng/mL
# [14] = antibody concentration 12500 ng/mL
# [15] = antibody concentration 0.1 ng/mL
# [16] = antibody concentration 0.534724 ng/mL
# [17] = antibody concentration 2.8593 ng/mL
# [18] = antibody concentration 15.2894 ng/mL
# [19] = antibody concentration 81.7561 ng/mL
# [20] = antibody concentration 437.17 ng/mL
binder,measurement,setting,value
B1,fluorescence intensity,[1]; [13],29.5 MFI
same,fluorescence intensity,[1]; [14],34.8 MFI
same,fluorescence intensity,[2]; [15],28 MFI
same,fluorescence intensity,[2]; [16],31 MFI
same,fluorescence intensity,[2]; [17],30 MFI
same,fluorescence intensity,[2]; [18],31.5 MFI
same,fluorescence intensity,[2]; [19],30 MFI
same,fluorescence intensity,[2]; [20],32.5 MFI
same,fluorescence intensity,[2]; [13],34 MFI
same,fluorescence intensity,[2]; [14],49 MFI
same,fluorescence intensity,[3]; [15],16 MFI
same,fluorescence intensity,[3]; [16],15.5 MFI
same,fluorescence intensity,[3]; [17],14.5 MFI
same,fluorescence intensity,[3]; [18],15.5 MFI
same,fluorescence intensity,[3]; [19],16.5 MFI
same,fluorescence intensity,[3]; [20],18.5 MFI
same,fluorescence intensity,[3]; [13],20 MFI
same,fluorescence intensity,[3]; [14],38.5 MFI
same,fluorescence intensity,[4]; [15],18.2 MFI
same,fluorescence intensity,[4]; [16],39.8 MFI
same,fluorescence intensity,[4]; [17],128 MFI
same,fluorescence intensity,[4]; [18],626 MFI
same,fluorescence intensity,[4]; [19],1880 MFI
same,fluorescence intensity,[4]; [20],5610 MFI
same,fluorescence intensity,[4]; [13],6220 MFI
same,fluorescence intensity,[4]; [14],6810 MFI
same,fluorescence intensity,[5]; [15],13.5 MFI
same,fluorescence intensity,[5]; [16],13 MFI
same,fluorescence intensity,[5]; [17],13.2 MFI
same,fluorescence intensity,[5]; [18],14 MFI
same,fluorescence intensity,[5]; [19],13.5 MFI
same,fluorescence intensity,[5]; [20],15.5 MFI
same,fluorescence intensity,[5]; [13],16.5 MFI
same,fluorescence intensity,[5]; [14],39.2 MFI
same,fluorescence intensity,[6]; [15],17.5 MFI
same,fluorescence intensity,[6]; [16],18 MFI
same,fluorescence intensity,[6]; [17],17.5 MFI
same,fluorescence intensity,[6]; [18],17.5 MFI
same,fluorescence intensity,[6]; [19],18.8 MFI
same,fluorescence intensity,[6]; [20],20 MFI
same,fluorescence intensity,[6]; [13],20.8 MFI
same,fluorescence intensity,[6]; [14],33.5 MFI
same,fluorescence intensity,[7]; [15],29 MFI
same,fluorescence intensity,[7]; [16],27.5 MFI
same,fluorescence intensity,[7]; [17],28.5 MFI
same,fluorescence intensity,[7]; [18],28 MFI
same,fluorescence intensity,[7]; [19],29.5 MFI
same,fluorescence intensity,[7]; [20],30 MFI
same,fluorescence intensity,[7]; [13],37.5 MFI
same,fluorescence intensity,[7]; [14],48.8 MFI
same,fluorescence intensity,[8]; [15],19 MFI
same,fluorescence intensity,[8]; [16],17.5 MFI
same,fluorescence intensity,[8]; [17],17 MFI
same,fluorescence intensity,[8]; [18],17.8 MFI
same,fluorescence intensity,[8]; [19],18 MFI
same,fluorescence intensity,[8]; [20],19 MFI
same,fluorescence intensity,[8]; [13],29.5 MFI
same,fluorescence intensity,[8]; [14],96.5 MFI
same,fluorescence intensity,[9]; [15],18 MFI
same,fluorescence intensity,[9]; [16],17.5 MFI
same,fluorescence intensity,[9]; [17],17 MFI
same,fluorescence intensity,[9]; [18],18 MFI
same,fluorescence intensity,[9]; [19],18 MFI
same,fluorescence intensity,[9]; [20],18.5 MFI
same,fluorescence intensity,[9]; [13],19 MFI
same,fluorescence intensity,[9]; [14],21.5 MFI
same,fluorescence intensity,[10]; [15],20.5 MFI
same,fluorescence intensity,[10]; [16],19.5 MFI
same,fluorescence intensity,[10]; [17],20 MFI
same,fluorescence intensity,[10]; [18],18.2 MFI
same,fluorescence intensity,[10]; [19],18.5 MFI
same,fluorescence intensity,[10]; [20],19 MFI
same,fluorescence intensity,[10]; [13],20.5 MFI
same,fluorescence intensity,[10]; [14],25.8 MFI
same,fluorescence intensity,[11]; [15],15 MFI
same,fluorescence intensity,[11]; [16],16 MFI
same,fluorescence intensity,[11]; [17],17 MFI
same,fluorescence intensity,[11]; [18],16.8 MFI
same,fluorescence intensity,[11]; [19],16.5 MFI
same,fluorescence intensity,[11]; [20],16.5 MFI
same,fluorescence intensity,[11]; [13],17.2 MFI
same,fluorescence intensity,[11]; [14],20 MFI
same,fluorescence intensity,[12]; [15],12 MFI
same,fluorescence intensity,[12]; [16],13.5 MFI
same,fluorescence intensity,[12]; [17],12.5 MFI
same,fluorescence intensity,[12]; [18],13.2 MFI
same,fluorescence intensity,[12]; [19],14 MFI
same,fluorescence intensity,[12]; [20],15.5 MFI
same,fluorescence intensity,[12]; [13],20 MFI
same,fluorescence intensity,[12]; [14],57.8 MFI

# 2 neighbouring entries already listed, for reference:
binder,measurement,setting,value
B1,fluorescence intensity,[5]; [20],15.5 MFI
same,fluorescence intensity,[5]; [13],16.5 MFI

# Part of the list above in another layout.
binder | measurement | setting | value
B1 | fluorescence intensity | [3]; [18] | 15.5 MFI
same | fluorescence intensity | [4]; [15] | 18.2 MFI
